Binding data for three substances are collected here from publication PMC12435490.

The chains behind the UniProt entries cited, without tags or fusion partners.
UniProt P67775: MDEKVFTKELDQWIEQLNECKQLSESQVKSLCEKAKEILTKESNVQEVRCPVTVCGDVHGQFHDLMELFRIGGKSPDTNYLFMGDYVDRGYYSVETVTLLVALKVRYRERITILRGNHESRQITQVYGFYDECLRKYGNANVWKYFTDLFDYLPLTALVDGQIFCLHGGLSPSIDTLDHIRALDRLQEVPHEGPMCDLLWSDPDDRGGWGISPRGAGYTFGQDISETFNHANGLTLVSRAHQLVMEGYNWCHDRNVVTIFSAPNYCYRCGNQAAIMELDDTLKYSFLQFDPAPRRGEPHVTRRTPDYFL
UniProt P35222: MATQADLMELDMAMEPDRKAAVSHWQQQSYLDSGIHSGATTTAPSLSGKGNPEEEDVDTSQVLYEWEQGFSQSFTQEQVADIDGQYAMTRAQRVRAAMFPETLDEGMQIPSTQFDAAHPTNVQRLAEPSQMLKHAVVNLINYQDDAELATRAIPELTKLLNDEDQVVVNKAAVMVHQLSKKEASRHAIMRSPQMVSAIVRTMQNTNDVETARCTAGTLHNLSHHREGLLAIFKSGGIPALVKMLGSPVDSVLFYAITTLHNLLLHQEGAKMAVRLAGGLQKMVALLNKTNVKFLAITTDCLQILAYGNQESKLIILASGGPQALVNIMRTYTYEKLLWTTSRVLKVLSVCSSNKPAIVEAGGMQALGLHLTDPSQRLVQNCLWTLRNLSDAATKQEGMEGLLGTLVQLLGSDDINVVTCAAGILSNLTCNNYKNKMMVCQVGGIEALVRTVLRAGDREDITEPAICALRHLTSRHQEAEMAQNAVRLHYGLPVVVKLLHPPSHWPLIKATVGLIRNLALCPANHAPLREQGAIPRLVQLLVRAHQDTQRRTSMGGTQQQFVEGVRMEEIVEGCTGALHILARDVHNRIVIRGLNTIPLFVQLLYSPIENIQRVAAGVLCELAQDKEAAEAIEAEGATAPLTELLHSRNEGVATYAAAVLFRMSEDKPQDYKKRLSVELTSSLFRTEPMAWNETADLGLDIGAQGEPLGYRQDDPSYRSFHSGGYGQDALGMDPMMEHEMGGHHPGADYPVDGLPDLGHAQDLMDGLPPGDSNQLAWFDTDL

Assay [1] has as its target T1, Flag-MKRN2 (wild type), expressed in HEK293T cells (human) (UniProt Q9H000).
T1 sequence: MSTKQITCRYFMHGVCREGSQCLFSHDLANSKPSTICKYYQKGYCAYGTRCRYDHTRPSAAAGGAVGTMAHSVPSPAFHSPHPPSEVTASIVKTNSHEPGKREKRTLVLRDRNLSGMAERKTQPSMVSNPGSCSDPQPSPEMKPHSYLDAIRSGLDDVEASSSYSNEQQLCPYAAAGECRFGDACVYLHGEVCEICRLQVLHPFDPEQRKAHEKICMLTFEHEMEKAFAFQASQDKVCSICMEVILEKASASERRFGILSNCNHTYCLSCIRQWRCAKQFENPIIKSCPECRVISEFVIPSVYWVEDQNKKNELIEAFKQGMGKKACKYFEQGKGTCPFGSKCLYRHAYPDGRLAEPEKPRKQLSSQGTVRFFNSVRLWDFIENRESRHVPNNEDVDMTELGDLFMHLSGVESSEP
The assay can be described thus: co-IP; exogenous; HEK293T cells overexpressing Flag-MKRN2 (wild type or truncation) and/or Myc-PPP2CA, western blot. For orientation: Immunoblotting shows a protein as a band on a membrane.

The target in assay [2] is T2, Makorin Ring Finger Protein 2 (MKRN2), endogenous (human (endogenous in A498 and Caki-1)) (UniProt Q9H000).
T2 sequence: T1 sequence
The assay can be described thus: co-IP; endogenous proteins; A498 and Caki-1 cell lysates incubated overnight at 4°C with primary antibody or IgG, protein A/G magnetic beads, washed with modified RIPA buffer, western blot.

The target of assay [3] is Protein Phosphatase 2 Catalytic Subunit Alpha (PPP2CA), endogenous (human (endogenous in A498 and Caki-1)) (UniProt P67775). The assay is described as above.

No constants are given. Whether binding was seen depends on the method and setting. Binding seen in cells or lysates may run through a third protein. Some entries that bind do so weakly or less than the wild type. For part of these data: Where a sequence is shown, tags or fusion partners need not be part of it.

For “Myc-PPP2CA, expressed in HEK293T cells (from UniProt P67775 1-309)”, in assay [1], the binding result was “binds”.
Regarding “Protein Phosphatase 2 Catalytic Subunit Alpha (PPP2CA), endogenous (from UniProt P67775 1-309)”, in assay [2], the binding entry was “binds”.
With “β-Catenin, endogenous (from UniProt P35222 1-781)”, in assay [3], the binding entry is reported as “binds”.
